The target in this test is p50, Flag-tagged (pFlag-p50 / p50-Flag) (UniProt P19838). Kind of test: co-IP; HEK293T cotransfected with tagged plasmids, 24 h; RIPA lysis at 4°C; lysate with anti-Flag, anti-HA, anti-Myc (or anti-EYFP) antibody or control mouse IgG and protein A/G PLUS-Agarose at 4°C overnight; washed with PBS; Western blot. (In western blotting, separated proteins are transferred to a membrane and probed.)

The chains behind the UniProt entries cited, without tags or fusion partners. Residues count along the entry.
UniProt P19838, residues 1-433: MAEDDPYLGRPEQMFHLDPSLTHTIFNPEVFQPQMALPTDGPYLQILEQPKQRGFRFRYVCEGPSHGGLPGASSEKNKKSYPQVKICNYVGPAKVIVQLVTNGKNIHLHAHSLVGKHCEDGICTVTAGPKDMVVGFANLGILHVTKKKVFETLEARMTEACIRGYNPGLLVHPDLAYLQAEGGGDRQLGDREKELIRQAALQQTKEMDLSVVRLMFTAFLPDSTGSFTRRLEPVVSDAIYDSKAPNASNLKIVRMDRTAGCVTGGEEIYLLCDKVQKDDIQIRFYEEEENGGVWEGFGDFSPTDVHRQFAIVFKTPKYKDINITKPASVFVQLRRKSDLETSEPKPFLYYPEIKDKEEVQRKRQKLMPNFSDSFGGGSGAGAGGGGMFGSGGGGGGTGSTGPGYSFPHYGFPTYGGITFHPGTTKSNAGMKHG
UniProt Q04206: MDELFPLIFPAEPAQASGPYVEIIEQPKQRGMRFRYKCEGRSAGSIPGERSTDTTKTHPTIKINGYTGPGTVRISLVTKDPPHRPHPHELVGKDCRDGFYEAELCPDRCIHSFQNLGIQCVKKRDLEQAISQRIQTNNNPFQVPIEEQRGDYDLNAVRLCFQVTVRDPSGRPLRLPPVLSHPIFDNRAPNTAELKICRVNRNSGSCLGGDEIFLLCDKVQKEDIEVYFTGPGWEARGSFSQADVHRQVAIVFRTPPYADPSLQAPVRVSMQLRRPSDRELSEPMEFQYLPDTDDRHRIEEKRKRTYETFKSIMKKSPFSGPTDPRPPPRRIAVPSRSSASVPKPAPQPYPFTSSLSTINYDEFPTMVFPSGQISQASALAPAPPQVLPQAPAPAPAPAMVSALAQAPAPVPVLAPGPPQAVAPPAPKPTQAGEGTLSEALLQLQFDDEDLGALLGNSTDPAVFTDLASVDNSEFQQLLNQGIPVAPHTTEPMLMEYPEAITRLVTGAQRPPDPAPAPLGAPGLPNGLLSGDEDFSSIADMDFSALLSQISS

Results are given in words; binding and its absence hold for the method and conditions named. Binding seen in cells or lysates may run through a third protein. Some results given as binding are weak or reduced against the parent protein; the word gives no strength.

For “p65-EYFP (pp65-EYFP) (from UniProt Q04206 1-551)”, the binding entry is “binds”.
